Data on 107 sequences can be found in PubChem BioAssay AID1508600 (Functional Genomics Laboratory (NCATS/FGL), 2020).

In all, about 53,000 sequences went through this assay and about 3,700 (7%) were called active.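 Rule for the calls: active = gene knockdowns whose robust z-score for IL-1 alpha signal is at least 2 or at most -2, so actives lie on both sides; inactive = the rest.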 Some of the results follow.

The nature of the experiment: Components of the Cytosolic LPS Sensing Pathway: Gene Identification via Genome-wide siRNA Screen.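 Note: robust z of the log signal after scaling to non-targeting control siRNA wells of the plate.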 The following applies: RAW264.7 macrophages, IL-1a HTRF, actives lie on both sides, screened at 100 nM (by protocol), cells primed 5 h with Pam3CSK4 first. Put shortly: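 Cells (RAW264.7, 1×10^4 per well) were transfected with siRNA at 100 nM and cultured 48h at 37 degrees C. Pam3CSK4 was added for 5 hours; LipidA transfection followed for 24 hour. IL-1a was then measured by HTRF.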
A general note: Time-resolved FRET reads energy transfer from a long-lived donor to a nearby acceptor.
In the case of GGACAAUCUUUACUUCCUATT against Vsx2, the z-score was inactive: -0.864.
Regarding GCGGACUAGCAGAGCUAUUTT against Dgkq, the z-score was inactive: -0.812.
On to GCAACAAUGGUAACCCUCCTT against Ctsg, for which the z-score is inactive: 1.68.
In the case of GGACCUACGACAUUUCCUCTT against Magi1, the z-score is inactive: -0.75.
As for GCUAAUAUUGUCGAUGUUATT against Ptger4, the z-score was inactive: 0.384.
Take GCGAUGCUCCUAAUUCUUATT against Dusp21: the z-score is inactive: -1.18.
Turning to GGUCAAUUAAGAGAAAUGUTT against Abca12, the z-score was inactive: 0.28.
For GAAAUUCUUCCAGUGGAAGTT against Lrp2bp, the z-score is inactive: 0.958.
The same measure for GCUAGUUUUUCAGAUUUCATT against Timm22: inactive: 1.29; for CCUAAUAAGCCAUAUGCAUTT against Alkbh8: inactive: -0.449; for GCACAUUUAUUCAAGAACCTT against Ttn: inactive: 0.126.
For CGAACUCAUCUACUGCUAUTT against Chst11, the z-score was inactive: 1.43.
For the sequence GGGUAACUAUAUCACAUACTT against Cacna1c, the z-score was inactive: -0.207.
Regarding GGAAUUAUGCUGCUUUAAUTT against Xrcc2, the z-score was inactive: 1.14.
Turning to GGUACAUGAAUUCCAAUACTT against Itgb8, the z-score was inactive: 0.784.
For the sequence GCGGAGCGUAUGGAUAUGATT against Zfp619, the z-score was inactive: 0.0905.
The same measure for CGAGGCUAAGAGGAAUCAGTT against Capn5: inactive: -0.314.
Take GGAGUUUCCAUCACGAAGATT against Bmp4: the z-score was inactive: 0.574.
Turning to GGCACUACAACGGAACUCATT against Slco5a1, the z-score was inactive: -1.82.
With GGAAAAACUCCUCUGAGGCTT against Dpcd the figure was inactive: -1.24.
As to GCACAGAUGCAAGAUAAUCTT against Hcfc2, the z-score is inactive: -0.717.
The same measure for GGCUUCAUAAGAUCAAAGATT against Lca5l: active: -2.88.
With GGGAACAGUUAUUUAAACGTT against Ino80e the figure was inactive: 0.103.
GGUUCUGACCCUUGGUUAUTT against Vmn1r217: the z-score is inactive: 0.89.
Consider CUUUUUCUUGCUCUUUGGATT against Olfr20, for which the z-score is inactive: 1.15.
With GGUGGAGGUGUGAUGGAUUTT against Slamf1, the z-score was active: 5.09.
With GGCAAUGGAAGUUGGAACATT against Ptch1 the figure was active: -2.15; with GGAAAUUUUCCAUCAUGAATT against Scn8a, inactive: -0.646; with GGGUUUAUUUGGUCAAGAUTT against Mpc2, inactive: -0.349.
In the case of GCAAUGGACUACUGCUGCUTT against Olfr704, the z-score is active: -2.26.
With GGUCUUAUGUAAGUGGUAUTT against Ociad1 the figure was active: -2.03.
Turning to GUUCUUAUAUAGGAUUGUGTT against Xkr9, the z-score was inactive: -0.782.
Regarding GGACUUACUGCUAAGAGCUTT against Stx8, the z-score was inactive: -0.31.
On to GGCACGCAUAUUCAACGAATT against Copg2, for which the z-score is inactive: -0.528.
Consider GGUAGAAGCAGAGUUACCATT against Spata32, for which the z-score was inactive: -1.64.
CCUUGUUACUAUACUACACTT against Ppp1r2: the z-score is active: 2.59.
For CGAUGAUCGGCUCAACAAGTT against Rplp2, the z-score is inactive: -0.401.
On to CCCGGCCAUCUACACUUAUTT against Gpr6, for which the z-score was inactive: 0.215.
Turning to GCAAGAGUGAGAAUAUGUCTT against Fadd, the z-score is inactive: -0.366.
As to GCCUCCGUUUGAAAUAGAGTT against Zswim9, the z-score was inactive: 0.381.
Turning to GGAGACUGUCAGAAAGUUATT against Olfr1164, the z-score is inactive: -0.769.
On to CCUCUCUGAAUUGGUUAAUTT against Dipk1a, for which the z-score was inactive: -1.34.
Regarding GGAGUUUCAUCCUACCAACTT against Nodal, the z-score is inactive: -0.142.
GUCCCUCUCUUCUUGGUGUTT against Olfr74: the z-score was inactive: 0.26.
With GGCUCCUCUACACAGGCAATT against Dusp26, the z-score is inactive: -1.39.
Turning to GAUCCGUUGGGAAAAGAACTT against Ssbp4, the z-score was inactive: -0.881.
The same measure for GGUAACAAUCCCAGAAUCCTT against Gbp4: inactive: 0.777; for GGUACUACACCUUUGAUGATT against Fibp: inactive: -0.497.
For GCUACAGUGAUACAUUAGATT against Zfp69, the z-score is inactive: 1.74.
For the sequence CCCGGAGAAAUACAUUAAGTT against Exoc7, the z-score is inactive: -0.0536.
For GGACAAGGAAUUCUAACAGTT against Ankrd49, the z-score was inactive: -0.953.
GGACAUUAGGAUCAGAACCTT against Frg2f1: the z-score was inactive: 1.88.
In the case of GGAGACGAGGUCAUCAUCATT against Kyat1, the z-score is inactive: -0.652.
Turning to GGAGCAGAAGAAAUAUCUUTT against Olfr13, the z-score was inactive: 0.0471.
Turning to GGAAAUCCAGAAGAAAUUATT against Stmn1, the z-score is inactive: 0.81.
Consider CGUUAUUUGCUGACAAUGUTT against Tas2r119, for which the z-score was inactive: -1.21.
The same measure for GCACAUAUGUUUGUUAAGCTT against Rft1: inactive: -0.423; for UGAUAAGUAGUCCCUCCUUTT against Fbxw16: inactive: -0.982; for GGUGGACAGGAGAAAGGAATT against Npy6r: inactive: -0.578.
For GGUGGUCCUUCCCUAAAGATT against Il11, the z-score is inactive: -0.747.
As to GGAGUACAGUGAUGACAAGTT against Ing5, the z-score was inactive: -0.083.
With GGAUAAAUCUCACUUCACATT against Etf1, the z-score was inactive: -0.477.
With GCCAAUAACUUCACUGAUATT against Pi15, the z-score is inactive: -1.53.
With GCUCCUAAUGAAAUGGUUUTT against Kif2a the figure was inactive: 1.41; with GGAAGUUAAAACCCUACUUTT against Trh, inactive: -0.43.
Consider GGGAAUAUGACUGAAUAUATT against Ss18, for which the z-score was inactive: -1.05.
For the sequence ACCUUUUCAAAUCUGUGCGTT against Uts2b, the z-score was inactive: -0.928.
With GGAGGAGGCUGACUACUUUTT against Kctd18 the figure was inactive: 0.75.
Turning to GGGCAAUACUAAAUAAAAGTT against Gid4, the z-score was inactive: 1.33.
On to GGUUCUGAAAUGCAUGGAGTT against Rnf6, for which the z-score is inactive: 1.76.
GGUGGAUGAUAAUGUUCUUTT against Gcnt3: the z-score is inactive: 0.911.
With GGAGUUUAGUGACGAUGUGTT against Zfp46 the figure was inactive: -1.48; with CCAGGUUCUGUUGAGAAUCTT against Irak1bp1, inactive: -0.403; with GGAAAUCCACAGGAAAGUGTT against G3bp1, inactive: 0.754.
Consider GGUAAAAUGAUCCUUAGAATT against Pcdh15, for which the z-score was inactive: 0.145.
Regarding CCAUCCAUAUGAACUAUGATT against Slc30a4, the z-score was inactive: -1.5.
The same measure for GGUUUACAGCAUCAUUAAATT against Shmt1: inactive: 0.345.
For CCUCGCAUAAUUAAUUGUUTT against Prdm8, the z-score was inactive: -0.242.
On to GCACCAAAACAGGAAUUACTT against Fibp, for which the z-score was inactive: 1.23.
As to GGACACAUUCAUCUUAACATT against Twistnb, the z-score is inactive: -1.12.
The same measure for GGGUCUUCCUUUCCUAUGATT against Msi2: inactive: -1.97.
As to GGUUUUUCAGCUUUGGAACTT against Decr1, the z-score was inactive: -0.822.
As to CCCGGACCUUGAAUAAGCATT against Piwil4, the z-score was inactive: -1.06.
The same measure for GGCCAAGGAUAUUCAGUAUTT against Timp4: inactive: -0.156; for GCCAGACUGGAGGUAAAAUTT against Serpinb10: active: -2.24; for “GGUUGCUAUCAACCUUUAATT against A530016L24Rik”: inactive: 0.62.
Consider GGUCAAAACAUGUCCAAACTT against Vmn1r63, for which the z-score is inactive: 1.27.
With GGCUGACAAGGAGAGCUUCTT against Pim3 the figure was inactive: -0.112; with GGCAGUCGAUUUAUAACUCTT against Clic5, inactive: 0.74; with GCUGAUGAAGGUGAUACGUTT against Pnma2, inactive: -0.7.
With GCUUAUCUAUUGAGAGAGATT against Hs3st3b1 the figure was inactive: -0.597; with CCUAAAGUCCUUAGUCACATT against Zfp397, inactive: -0.305; with GGCCUUGGCAUCUAUUUAUTT against Tcf12, inactive: 1.22.
Turning to GCUAAGGUCUGUUAAACGCTT against Hyal3, the z-score is inactive: 0.695.
With GGCUCUGGAAAAGAACAACTT against Sds, the z-score was inactive: 1.52.
Take GGAAGAUUAUCUCUUUUGATT against Olfr1214: the z-score is inactive: 0.929.
With GGAAGACAUGAAAUUGUUCTT against Psma3 the figure was active: -2.69; with GGAGAAUGGCAUUUUUGAGTT against Pkp3, inactive: -1.6.
The same measure for GGAAAAAGAGGCCAAAAAGTT against Arid4a: inactive: -0.221; for GGAAGGCAACUCUUAGAAUTT against Olfr491: inactive: -0.135.
For CCAGGAUUACAUCCGGACATT against Srbd1, the z-score is inactive: -0.379.
GGAUACACACAGAGAAUAUTT against Arhgef10l: the z-score was inactive: 0.161.
The same measure for GGAAGUUUUCAGGCAAUUUTT against Dock9: inactive: -0.555; for CCGAUUUUGUGGCCUCAUGTT against Emg1: inactive: -0.578; for GGAGAAGCCCUGAAUGAAGTT against Pik3c2g: inactive: -0.902.
The same measure for GGAUGAUCCACCGUCAAAATT against Il9: inactive: 0.5; for GGACACCACCGACUUUUUUTT against Nr2c2ap: inactive: -0.786.
